Entries after “also recorded” stand apart in the source; their conditions may differ. At least one compound was matched to its structure with a doubt left.
Legend:
ERK phosphorylation [1] = test: Immunoblot of ERK phosphorylation in Ba/F3 cells; assay type: cell-based, murine; settings: NF1-depleted Ba/F3 cells
[2] = system: NF1-depleted and NRAS^G12D Ba/F3 cells; test: Mitostress analysis (Seahorse OCR/ECAR); assay type: cell-based, murine; settings: 250 nM or 500 nM for 4 h
ERK phosphorylation [3] = test: Immunoblot of ERK phosphorylation in TF-1 cells; assay type: cell-based, human
[4] = system: CTR, NF1-1.3, NF1-42.8 and NRASG12D Ba/F3 cells; test: Pyrvinium pamoate dose-range cell viability (uptiblue) in Ba/F3 cells; assay type: cell-based, murine; settings: log-dilutions 10^-5 to 10^-8 M
[5] = system: Wnt activity in HUH-6 cells; test: Wnt reporter activity assay (TOP/FOP); assay type: cell-based; settings: 250 or 2500 nM, trend to dose-dependent inhibition
primary AML samples = test: Leukemia colony forming units (CFU-L) assay; assay type: cell-based, human; settings: for CFU-L colonies formation: 12 primary AML samples with RAS pathway mutations, 50 nM trametinib, 250 nM pyrvinium or combo, 7 days
RAS = RAS pull down assay (GST-RAF1-RBD) in TF-1 cells; assay type: cell-based, human
[6] = system: RAS pathway mutated AML samples; settings: BEAT AML database; short-term liquid culture; cited from earlier work
NF1 knockdown TF-1 cells = test: Apoptosis: PARP and caspase-3 cleavage, flow cytometry annexin V staining; assay type: cell-based, human
ERK phosphorylation [7] = test: ERK phosphorylation in bone marrow leukemic cells of CLDX mice; assay type: in vivo, NSG mice; settings: mice sacrificed 18 days after trametinib or vehicle onset
ERK phosphorylation [8] = test: ERK phosphorylation in patient leukemic cells incubated ex vivo; assay type: cell-based, human; settings: NRAS^G12A-mutated AML patient cells
NRAS^G12A-mutated AML = assay type: in vivo; settings: person; trametinib 2 mg/d, second course; hydroxycarbamide 2000 mg daily

Structure (SMILES)	ERK phosphorylation (ERK phosphorylation [1])	mitochondrial respiration (basal and maximal) [2]	ERK phosphorylation inhibition (ERK phosphorylation [3]; pyrvinium pamoate)	viability in NF1-depleted and NRAS^G12D mutated cells compared to control cells [4]	Wnt activity [5]	CFU-L colonies formation (primary AML samples)	RAS activation (RAS)	sensitivity of RAS pathway mutated samples compared to other samples [6]	ERK phosphorylation (ERK phosphorylation [3]; trametinib since 0.5 h incubation)	apoptosis (PARP and caspase-3 cleavage, annexin V staining) (NF1 knockdown TF-1 cells)	ERK phosphorylation in bone marrow leukemic cells (ERK phosphorylation [7])	ERK phosphorylation, patient leukemic cells ex vivo (ERK phosphorylation [8])	white blood cell count / leukocytosis (NRAS^G12A-mutated AML)	CFU-L formation in NRAS^G12 and NRAS^Q61R mutated samples compared to other mutations (primary AML samples; 50 nM, RAS pathway mutated samples)	absolute number of CFU-L (primary AML samples; 39 primary AML samples, 50 nM vs vehicle, p=0.0021)	CFU-L formation, patient leukemic cells ex vivo (primary AML samples; NRAS^G12A-mutated AML patient cells)
Cc1cc(/C=C/c2ccc3cc(N(C)C)ccc3[n+]2C)c(C)n1-c1ccccc1 [pyrvinium pamoate, 2-[(E)-2-(2,5-dimethyl-1-phenyl-1H-pyrrol-3-yl)ethenyl]-6-(dimethylamino)-1-methylquinolin-1-ium]	inhibited ERK phosphorylation	decrease in basal and maximal respiration; also recorded: dose-dependently inhibited mitochondrial respiration	moderate	dramatically decreased viability	did not significantly inhibited Wnt activity	trend to reduced CFU-L	–	–	–	–	–	–	–	–	–	–
CC(=O)Nc1cccc(-n2c(=O)n(C3CC3)c(=O)c3c(Nc4ccc(I)cc4F)n(C)c(=O)c(C)c32)c1 [trametinib]	–	–	–	–	–	no overall influence on colonies formation	without affecting RAS activation	greater sensitivity	markedly inhibited ERK phosphorylation	apoptosis induction	ERK phosphorylation was inhibited	complete inhibition of ERK phosphorylation	dramatically reduced leukocytosis	dramatic reduction of CFU-L formation	significantly reduced	marked reduction of CFU-L formation
Cn1cnc2c(F)c(Nc3ccc(Br)cc3Cl)c(C(=O)NOCCO)cc21 [selumetinib]	–	–	–	–	–	–	–	greater sensitivity	–	–	–	–	–	–	–	–

— patent US20220288040A1, “USE OF PYRVINIUM FOR THE TREATMENT OF A RAS PATHWAY MUTATED ACUTE MYELOID LEUKEMIA” (INSERM (INSTITUT NATIONAL DE LA SANTÉ ET DE LA RECHERCHE …, priority 2019, published 2022)
